Results are given in words; binding and its absence hold for the method and conditions named. In cells and extracts the contact can be indirect. Some entries that bind do so weakly or less than the wild type.
Columns and labels:
[1] = molecular target: GST-tagged pacsin 2 SH3 domain (human) (UniProt Q9UNF0); assay: pull-down; GST–pacsin 2 SH3 or GST beads (10 µl bed) as bait; 170 µl extract of transfected HEK293T cells; 20 mM Tris-HCl pH 7.5, 150 mM NaCl, 10% glycerol, 5 mM EDTA, 2% Triton X-100; 1 h at 4°C; anti-GFP immunoblot; only the target purified
[2] = molecular target: GST-tagged pacsin 2 SH3 domain (human) (UniProt Q9UNF0); assay: pull-down; GST–pacsin 2 SH3 or GST on glutathione beads as bait; T24 cell lysate; bound endogenous N-cadherin detected by anti-N-cadherin immunoblot; only the target purified

By UniProt entry, the sequences of proteins in these tests, tags left out. Where a name states a change or a piece, a line headed by the entry shows the natural chain unless it says otherwise. Chains listed by the source or under a name are the forms on record and can include a tag or linker. Residues count along the entry.
UniProt Q9UNF0, residues 426-486: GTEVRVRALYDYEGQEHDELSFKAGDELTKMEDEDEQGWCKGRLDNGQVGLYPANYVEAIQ
endogenous N-cadherin in T24 cells (P19022, residues 160-906): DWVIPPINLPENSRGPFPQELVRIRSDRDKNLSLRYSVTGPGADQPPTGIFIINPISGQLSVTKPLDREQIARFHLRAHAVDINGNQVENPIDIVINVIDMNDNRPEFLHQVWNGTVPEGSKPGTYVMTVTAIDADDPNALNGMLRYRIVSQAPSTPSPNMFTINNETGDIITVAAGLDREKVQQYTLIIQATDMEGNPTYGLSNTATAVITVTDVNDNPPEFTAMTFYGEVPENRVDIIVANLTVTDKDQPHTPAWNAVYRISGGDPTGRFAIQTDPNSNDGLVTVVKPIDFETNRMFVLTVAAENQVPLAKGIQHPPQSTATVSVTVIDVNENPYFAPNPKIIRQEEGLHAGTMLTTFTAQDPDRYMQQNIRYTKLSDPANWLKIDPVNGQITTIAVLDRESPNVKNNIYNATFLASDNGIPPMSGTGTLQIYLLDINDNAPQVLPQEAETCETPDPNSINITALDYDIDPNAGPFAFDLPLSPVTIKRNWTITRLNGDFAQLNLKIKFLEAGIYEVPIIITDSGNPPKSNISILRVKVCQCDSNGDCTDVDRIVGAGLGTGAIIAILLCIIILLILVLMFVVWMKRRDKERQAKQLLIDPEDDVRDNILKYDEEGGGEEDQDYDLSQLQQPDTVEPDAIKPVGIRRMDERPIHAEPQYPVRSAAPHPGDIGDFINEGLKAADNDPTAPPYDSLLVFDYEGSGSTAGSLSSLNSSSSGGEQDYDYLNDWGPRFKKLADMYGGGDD
GFP-tagged N-cadherin cytoplasmic domain, wild type (P19022, residues 746-906): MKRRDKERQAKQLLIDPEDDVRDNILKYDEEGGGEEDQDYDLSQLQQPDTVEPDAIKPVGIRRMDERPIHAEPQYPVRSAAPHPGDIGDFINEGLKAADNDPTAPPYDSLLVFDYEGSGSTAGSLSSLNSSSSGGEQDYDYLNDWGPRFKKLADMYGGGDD
GFP-tagged N-cadherin cytoplasmic domain P818/821A (P19022-1, form named): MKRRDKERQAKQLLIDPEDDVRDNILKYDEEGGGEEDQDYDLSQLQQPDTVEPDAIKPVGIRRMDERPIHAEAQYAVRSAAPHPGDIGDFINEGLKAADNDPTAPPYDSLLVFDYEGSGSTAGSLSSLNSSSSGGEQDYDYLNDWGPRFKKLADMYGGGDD
GFP-tagged N-cadherin cytoplasmic domain P847/850/851A (P19022-1, form named): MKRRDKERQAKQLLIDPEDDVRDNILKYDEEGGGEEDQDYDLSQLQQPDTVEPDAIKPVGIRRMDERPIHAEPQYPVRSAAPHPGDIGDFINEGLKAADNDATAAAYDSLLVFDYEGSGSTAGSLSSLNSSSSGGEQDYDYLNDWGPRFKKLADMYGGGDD

Substance: GFP-tagged N-cadherin cytoplasmic domain P818/821A (from UniProt P19022-1 746-906) (domain or fragment)
- binding [1]: binds

Substance: GFP-tagged N-cadherin cytoplasmic domain P847/850/851A (from UniProt P19022-1 746-906) (domain or fragment)
- binding [1]: binds

Substance: GFP-tagged N-cadherin cytoplasmic domain, wild type (from UniProt P19022-1 746-906) (domain or fragment)
- binding [1]: binds

Substance: endogenous N-cadherin in T24 cells (from UniProt P19022-1 160-906)
- binding [2]: binds
